Source: PubChem BioAssay AID1347076 (National Center for Advancing Translational Sciences (NCATS), 2019)
Screen size: about 400,000 compounds; about 13,000 (3.2%) were called active. This list was built around the results that the source calls inconclusive (neither active nor inactive); the mix of calls is not that of the screen. Calls follow the shape of the dose curve; as a rule, active = well fitted cell-killing curve with a large enough effect; inconclusive = small, poorly fitted or top-dose-only effect, or effect the other way; inactive = flat fitted curve, though single readings scatter. A potency beside an inconclusive call is a rough fit, not a confirmed value.
% is scaled to controls: 0 for no effect and ±100 for the full control effect; potency is read from the fitted curve at half-maximal effect.

Assay: qHTS assay for MDR1-selective chemotherapeutics: Primary screen using the drug-selected MDR subline cells KB-V1; also: nearly all actives have a fitted effect of over 60% in size
Details: KB-V1 MDR cells viability, CellTiter-Glo, 72 h; activity change, negative = cytotoxicity: at 46.1 µM (top of the series)
Method in brief: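 Luminescent ATP read-out (CellTiter-Glo, 10 min) measures survival of drug-selected KB-V1 MDR cells after 72 h, 37 degrees C compound exposure. Medium: phenol-red-free DMEM, 10% FBS. Values from fitted concentration-response curves.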
For `CN(C)CCNC(=O)CN1C(=O)CSc2ccc(S(=O)(=O)N3CCCCC3)cc21`, the Potency was inconclusive: 2.91 µM [rising, full curve]. With `CCOC(=O)n1c(=O)oc2ccc(Cl)cc21` the Potency was “inactive”. In the case of `O=C1C(Cl)=C(Nc2ccccc2)C(=O)c2ccccc21`, the Potency is reported as inconclusive: 20.6 µM [cytotoxic, single point]. In the case of `Nc1nc(Nc2ccccc2F)nc(NC2CCCCC2)c1[N+](=O)[O-]`, the Potency is reported as inconclusive: 18.4 µM [cytotoxic, single point]. With `Cc1[nH]c2ccccc2c1/C=N/Nc1nc(Nc2ccccc2)nc(N2CCOCC2)n1` the Potency was inconclusive: 16.4 µM [cytotoxic, single point]. In the case of `COc1ccccc1CNC(=O)c1cnc2sc(N3CCCCC3)nn2c1=O`, the Potency is reported as inconclusive: 3.66 µM [cytotoxic, partial curve]. With `CCOC(=O)N1CCN(C(=O)CSCC(=O)Nc2nc(-c3ccc(OC)cc3)cs2)CC1` the Potency was active: 20.6 µM. For `COc1cccc(C2C(C(=O)Nc3ccccc3OC)=C(C)Nc3nc(-c4ccco4)nn32)c1` (stereo not given), the Potency was “inactive”. For `CN1CCC(Oc2ccccc2Sc2ccc(C(F)(F)F)cc2)CC1`, the Potency was “inactive”. With `N#C/C(=C\c1cccc2ccccc12)c1nn(-c2ccccc2)c(N)c1C#N` the Potency was “inactive”. For `CC(=O)c1cccc(OCC(=O)Nc2cc(S(=O)(=O)N3CCOCC3)ccc2N2CCCC2)c1`, the Potency was “inactive”. For `COc1ccc(-c2sc(NC(C)=O)nc2-c2ccccc2)cc1`, the Potency was active: 18.4 µM. For `Cc1cccc(C(=O)N2[C@@H](C(C)C)COc3cc(Br)ccc3S2(=O)=O)c1`, the Potency was inconclusive: 11.6 µM [cytotoxic, partial curve, poor fit]. In the case of `CC(C)C[C@H]1CNC(=S)N1C[C@H]1CCCN1C[C@H](Cc1ccccc1)N1C[C@H](Cc2ccc(O)cc2)N(CC2CCCCCC2)C1=S`, the Potency is reported as inconclusive: 29.1 µM [cytotoxic, single point]. For `CC(C)(C)n1c(O)c2ccc(C(=O)N=NC(=O)c3ccccc3)cc2c1O`, the Potency was inconclusive: 29.1 µM [cytotoxic, single point]. With `CCC(C(=O)Nc1cc(C(F)(F)F)ccc1Cl)n1nc(C)c2sc3ccccc3c2c1=O` (stereo not given) the Potency was “inactive”. In the case of `COc1cc(C(=O)N(Cc2ccccc2)c2cccc(C)c2)ccc1OC(F)F`, the Potency is reported as inconclusive: 23.1 µM [cytotoxic, single point]. With `COc1ccccc1C1CCN(Cc2cccc3ccccc23)CC1` the Potency was inconclusive: 9.2 µM [cytotoxic, partial curve]. With `NS(=O)(=O)c1ccc(CNC(=O)c2cccc(S(=O)(=O)N3CCc4ccccc43)c2)cc1` the Potency was inconclusive: 23.1 µM [rising, single point]. For `C=CCn1c(SCC(=O)N2CCN(CCO)CC2)nc2sc3c(c2c1=O)CCC3`, the Potency was inconclusive: 29.1 µM [cytotoxic, single point]. With `O=C1N/C(=N/N=C/c2ccc(O)cc2)SC1Cc1ccccc1` (stereo not given) the Potency was “inactive”. For `CCN=c1scc(-c2cccs2)n1/N=C/c1cc(OC)ccc1O`, the Potency was inconclusive: 5.8 µM [cytotoxic, full curve, poor fit]. In the case of `COc1ccc(CN(C(=O)CSc2nnc(-c3ccc(F)cc3)o2)c2ccc(F)cc2)cc1`, the Potency is reported as active: 20.6 µM. With `CC(=O)/C=C/c1ccc2c(c1)S(=O)(=O)N(C1CCCC1)[C@H]2CC(C)=O` the Potency was active: 18.4 µM. In the case of `COc1ccc(-c2noc(CSc3nc4ccc(C)cc4[nH]3)n2)cc1`, the Potency is reported as “inactive”. In the case of `Cc1nn2c(-n3ccnc3)c3c(nc2c1-c1ccccc1)CCC3`, the Potency is reported as inconclusive: 23.1 µM [cytotoxic, partial curve, poor fit]. With `Clc1ccc(/C=N/Nc2nnc(-c3ncc[nH]3)c3ccccc23)cc1` the Potency was active: 7.31 µM. With `COc1ccc(-c2nc3cnccn3c2NC(C)(C)CC(C)(C)C)cc1O` the Potency was inconclusive: 11.6 µM [cytotoxic, partial curve, poor fit]. For `O=C(NCC(c1ccco1)N1CCCCC1)c1ccc(COc2ccccc2)cc1` (stereo not given), the Potency was inconclusive: 5.17 µM [cytotoxic, partial curve]. With `COc1ccc(NC(=O)NCCc2c[nH]c3ccccc23)c(OC)c1` the Potency was inconclusive: 14.6 µM [rising, partial curve, poor fit]. With `Cc1nn(C)c(C)c1S(=O)(=O)N(CC(=O)Nc1ccc(F)cc1F)c1ccc(C(C)C)cc1` the Potency was “inactive”. With `Cc1ccc(NC(=O)CN(C)CC(=O)Nc2ccc3c(c2)OCO3)cc1` the Potency was inconclusive: 29.1 µM [cytotoxic, single point]. For `CN(C)c1ccc(/C=C/c2cccc3ccccc23)cc1`, the Potency was “inactive”. With `Cc1ccc(CN(C)C(=O)c2ccc(NS(=O)(=O)c3ccc4[nH]c(=O)[nH]c4c3)cc2)cc1` the Potency was inconclusive: 32.6 µM [rising, single point]. For `Cc1cccc(C)c1NC(=O)C(Cl)=C(Cl)Cl`, the Potency was inconclusive: 20.6 µM [cytotoxic, single point]. In the case of `Cc1ccccc1C(=O)Nc1c(C)[nH]c(=O)[nH]c1=O`, the Potency is reported as inconclusive: 11.6 µM [rising, partial curve, poor fit]. In the case of `Cc1ccc(CN2C(=O)SC(Nc3ccc(Cl)cc3)C2=O)cc1` (stereo not given), the Potency is reported as inconclusive: 29.1 µM [rising, single point]. With `CC(C)CNC(=O)Nc1ccccc1F` the Potency was “inactive”. With `O=CNCCCc1nc2ccccc2n1Cc1cccc2ccccc12` the Potency was “inactive”. In the case of `COc1ccccc1/C=C/C(=O)/C=C/c1ccccc1O`, the Potency is reported as inconclusive: 25.9 µM [cytotoxic, partial curve, poor fit]. For `CCSc1nnc(NC(=O)C2CSC3(C)CCC(=O)N23)s1` (stereo not given), the activity change, negative = cytotoxicity was inconclusive: 0%. In the case of `Cc1cc(C)c2cccc(N)c2n1`, the Potency is reported as “inactive”. For `COc1ccc(NC(=O)C2(C)Cc3c(-c4ccc(N(C)C)cc4)ccnc3O2)cc1` (stereo not given), the Potency was inconclusive: 25.9 µM [cytotoxic, single point]. For `O=S(=O)(NCC1CCCO1)c1ccc(Br)cc1` (stereo not given), the Potency was inconclusive: 0.651 µM [rising, full curve, poor fit]. With `Cc1cccc(N2C(=O)N3[C@H](c4ccc(F)cc4)[C@@H]4C(=O)N(C5CCCCC5)C(=O)[C@@H]4[C@]3(Cc3ccccc3)C2=O)c1` the Potency was inconclusive: 16.4 µM [cytotoxic, single point].
